# In the supplement of paper PMC10849652:
# The chains behind the UniProt entries cited, without tags or fusion partners. Where a name states a change or a piece, a line headed by the entry shows the natural chain unless it says otherwise.
# UniProt O94887: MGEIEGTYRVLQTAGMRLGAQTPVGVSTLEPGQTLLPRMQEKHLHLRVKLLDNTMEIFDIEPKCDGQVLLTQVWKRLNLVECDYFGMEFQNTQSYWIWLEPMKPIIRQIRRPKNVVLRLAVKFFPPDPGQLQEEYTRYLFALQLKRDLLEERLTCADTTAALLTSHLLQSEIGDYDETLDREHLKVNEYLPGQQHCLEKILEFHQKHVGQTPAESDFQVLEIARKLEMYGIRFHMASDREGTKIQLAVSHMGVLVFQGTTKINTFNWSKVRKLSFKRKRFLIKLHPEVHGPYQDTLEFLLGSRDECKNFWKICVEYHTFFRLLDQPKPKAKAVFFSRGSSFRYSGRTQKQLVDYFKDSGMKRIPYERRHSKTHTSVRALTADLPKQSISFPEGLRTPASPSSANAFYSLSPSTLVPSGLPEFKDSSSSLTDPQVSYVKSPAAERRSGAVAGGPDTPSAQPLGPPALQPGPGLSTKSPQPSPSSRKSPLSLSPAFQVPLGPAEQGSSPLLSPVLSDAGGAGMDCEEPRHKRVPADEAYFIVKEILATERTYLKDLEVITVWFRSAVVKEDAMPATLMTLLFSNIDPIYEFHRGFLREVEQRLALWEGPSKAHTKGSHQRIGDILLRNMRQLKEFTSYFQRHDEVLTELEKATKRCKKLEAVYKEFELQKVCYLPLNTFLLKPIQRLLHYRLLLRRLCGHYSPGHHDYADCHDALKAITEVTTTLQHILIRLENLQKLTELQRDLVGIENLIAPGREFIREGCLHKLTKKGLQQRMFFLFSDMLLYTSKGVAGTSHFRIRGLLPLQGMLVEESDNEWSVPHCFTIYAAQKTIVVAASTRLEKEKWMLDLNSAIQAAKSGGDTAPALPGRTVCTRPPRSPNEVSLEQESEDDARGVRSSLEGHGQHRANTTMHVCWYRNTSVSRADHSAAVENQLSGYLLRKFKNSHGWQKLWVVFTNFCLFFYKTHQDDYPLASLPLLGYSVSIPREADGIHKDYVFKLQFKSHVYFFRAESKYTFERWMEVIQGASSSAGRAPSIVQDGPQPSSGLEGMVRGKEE
# UniProt Q96AC1: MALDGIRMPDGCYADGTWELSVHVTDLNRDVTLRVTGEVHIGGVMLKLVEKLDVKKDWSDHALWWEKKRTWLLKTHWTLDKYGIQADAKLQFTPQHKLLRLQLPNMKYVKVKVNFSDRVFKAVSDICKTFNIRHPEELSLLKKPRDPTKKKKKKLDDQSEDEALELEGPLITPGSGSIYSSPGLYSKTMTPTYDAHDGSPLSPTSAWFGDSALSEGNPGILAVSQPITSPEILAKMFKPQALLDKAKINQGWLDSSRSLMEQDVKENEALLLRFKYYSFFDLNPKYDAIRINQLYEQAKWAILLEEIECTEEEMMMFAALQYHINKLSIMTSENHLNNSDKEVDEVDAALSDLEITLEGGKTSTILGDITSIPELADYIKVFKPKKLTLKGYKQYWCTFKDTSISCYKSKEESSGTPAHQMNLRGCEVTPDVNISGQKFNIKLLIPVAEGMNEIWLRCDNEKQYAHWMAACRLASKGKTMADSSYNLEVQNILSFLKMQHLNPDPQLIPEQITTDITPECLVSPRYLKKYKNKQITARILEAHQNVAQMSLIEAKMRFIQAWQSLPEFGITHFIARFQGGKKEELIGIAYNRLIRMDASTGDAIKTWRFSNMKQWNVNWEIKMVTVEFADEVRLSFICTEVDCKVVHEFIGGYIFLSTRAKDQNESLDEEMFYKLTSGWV
# UniProt Q17RN3: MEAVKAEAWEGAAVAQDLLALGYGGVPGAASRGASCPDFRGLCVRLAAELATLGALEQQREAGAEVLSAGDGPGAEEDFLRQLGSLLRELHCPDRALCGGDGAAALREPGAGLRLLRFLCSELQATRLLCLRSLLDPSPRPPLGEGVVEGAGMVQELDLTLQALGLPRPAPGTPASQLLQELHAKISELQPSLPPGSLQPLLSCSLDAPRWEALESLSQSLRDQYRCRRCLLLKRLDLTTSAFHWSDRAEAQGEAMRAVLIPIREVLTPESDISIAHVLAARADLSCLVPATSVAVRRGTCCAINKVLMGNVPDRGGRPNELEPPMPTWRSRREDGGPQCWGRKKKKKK
# UniProt Q9NYF3: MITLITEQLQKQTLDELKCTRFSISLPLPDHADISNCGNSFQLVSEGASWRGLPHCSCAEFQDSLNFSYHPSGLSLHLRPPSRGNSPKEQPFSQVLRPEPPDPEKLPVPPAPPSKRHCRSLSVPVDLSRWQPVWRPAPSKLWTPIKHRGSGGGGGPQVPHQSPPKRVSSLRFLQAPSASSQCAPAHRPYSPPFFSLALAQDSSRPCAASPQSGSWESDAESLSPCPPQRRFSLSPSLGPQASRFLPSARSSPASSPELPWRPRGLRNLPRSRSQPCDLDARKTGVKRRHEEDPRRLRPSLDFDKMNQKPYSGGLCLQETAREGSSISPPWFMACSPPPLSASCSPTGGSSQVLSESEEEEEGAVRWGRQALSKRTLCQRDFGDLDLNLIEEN
# UniProt Q9H4M3: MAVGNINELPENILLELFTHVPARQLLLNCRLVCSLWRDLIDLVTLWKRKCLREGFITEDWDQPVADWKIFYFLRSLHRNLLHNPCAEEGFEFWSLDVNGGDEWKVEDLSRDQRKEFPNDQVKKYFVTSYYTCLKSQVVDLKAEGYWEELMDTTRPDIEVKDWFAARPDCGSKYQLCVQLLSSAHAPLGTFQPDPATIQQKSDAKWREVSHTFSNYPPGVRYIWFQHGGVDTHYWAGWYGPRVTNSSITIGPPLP
# UniProt Q96CD0: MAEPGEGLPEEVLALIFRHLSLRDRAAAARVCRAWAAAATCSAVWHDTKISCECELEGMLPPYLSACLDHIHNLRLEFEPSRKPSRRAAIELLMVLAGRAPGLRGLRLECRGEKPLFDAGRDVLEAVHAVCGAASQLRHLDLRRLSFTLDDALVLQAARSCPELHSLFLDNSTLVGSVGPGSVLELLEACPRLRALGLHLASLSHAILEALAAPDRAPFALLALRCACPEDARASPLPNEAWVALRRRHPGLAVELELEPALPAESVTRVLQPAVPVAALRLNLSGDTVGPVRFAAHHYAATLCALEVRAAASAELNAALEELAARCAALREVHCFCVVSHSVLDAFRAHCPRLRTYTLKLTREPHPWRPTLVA
# UniProt Q9NVK5: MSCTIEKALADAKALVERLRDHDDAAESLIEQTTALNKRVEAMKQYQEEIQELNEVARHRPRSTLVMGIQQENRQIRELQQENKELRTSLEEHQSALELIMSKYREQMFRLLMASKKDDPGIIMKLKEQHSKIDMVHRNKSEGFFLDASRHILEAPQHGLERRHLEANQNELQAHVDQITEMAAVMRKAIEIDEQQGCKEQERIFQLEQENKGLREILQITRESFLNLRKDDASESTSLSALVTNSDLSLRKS
# UniProt Q8IW50: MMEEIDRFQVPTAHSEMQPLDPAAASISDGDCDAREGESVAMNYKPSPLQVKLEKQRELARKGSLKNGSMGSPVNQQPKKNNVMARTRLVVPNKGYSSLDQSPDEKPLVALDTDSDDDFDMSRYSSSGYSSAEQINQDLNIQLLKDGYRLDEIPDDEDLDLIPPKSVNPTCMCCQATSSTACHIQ
# UniProt Q9NW38: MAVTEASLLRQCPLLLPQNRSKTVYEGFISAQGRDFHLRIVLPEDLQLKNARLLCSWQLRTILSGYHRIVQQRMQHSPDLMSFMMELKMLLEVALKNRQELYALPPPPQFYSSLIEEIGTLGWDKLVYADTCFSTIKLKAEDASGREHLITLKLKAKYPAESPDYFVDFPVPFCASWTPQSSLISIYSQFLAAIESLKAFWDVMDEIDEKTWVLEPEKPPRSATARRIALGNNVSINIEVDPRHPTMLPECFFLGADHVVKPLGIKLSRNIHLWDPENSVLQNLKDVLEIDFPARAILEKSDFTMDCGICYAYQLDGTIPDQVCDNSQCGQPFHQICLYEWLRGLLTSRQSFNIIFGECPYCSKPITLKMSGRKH
# UniProt O14526: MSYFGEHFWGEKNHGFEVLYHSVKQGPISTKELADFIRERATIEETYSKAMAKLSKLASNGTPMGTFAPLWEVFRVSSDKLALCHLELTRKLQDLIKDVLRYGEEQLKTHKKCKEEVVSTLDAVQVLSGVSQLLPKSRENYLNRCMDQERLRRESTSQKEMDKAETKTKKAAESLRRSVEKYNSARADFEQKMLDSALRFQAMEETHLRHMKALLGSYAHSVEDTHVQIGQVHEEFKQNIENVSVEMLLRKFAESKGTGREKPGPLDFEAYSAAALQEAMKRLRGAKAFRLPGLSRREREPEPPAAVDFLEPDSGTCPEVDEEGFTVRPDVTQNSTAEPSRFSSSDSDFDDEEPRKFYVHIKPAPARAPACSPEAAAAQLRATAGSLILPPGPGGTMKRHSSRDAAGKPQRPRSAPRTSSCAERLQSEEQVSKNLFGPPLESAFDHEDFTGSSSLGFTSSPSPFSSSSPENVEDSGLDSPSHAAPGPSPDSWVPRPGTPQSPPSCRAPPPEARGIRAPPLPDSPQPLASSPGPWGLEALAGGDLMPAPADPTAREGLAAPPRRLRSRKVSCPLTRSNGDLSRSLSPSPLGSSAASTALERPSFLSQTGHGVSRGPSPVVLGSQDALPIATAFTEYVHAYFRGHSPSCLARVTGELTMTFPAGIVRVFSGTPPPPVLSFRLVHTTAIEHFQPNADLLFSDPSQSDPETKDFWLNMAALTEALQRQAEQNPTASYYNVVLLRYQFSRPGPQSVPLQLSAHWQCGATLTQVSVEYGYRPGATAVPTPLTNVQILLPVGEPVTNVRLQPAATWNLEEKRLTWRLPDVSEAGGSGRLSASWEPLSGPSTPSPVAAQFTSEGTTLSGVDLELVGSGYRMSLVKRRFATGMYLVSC
# UniProt Q13045: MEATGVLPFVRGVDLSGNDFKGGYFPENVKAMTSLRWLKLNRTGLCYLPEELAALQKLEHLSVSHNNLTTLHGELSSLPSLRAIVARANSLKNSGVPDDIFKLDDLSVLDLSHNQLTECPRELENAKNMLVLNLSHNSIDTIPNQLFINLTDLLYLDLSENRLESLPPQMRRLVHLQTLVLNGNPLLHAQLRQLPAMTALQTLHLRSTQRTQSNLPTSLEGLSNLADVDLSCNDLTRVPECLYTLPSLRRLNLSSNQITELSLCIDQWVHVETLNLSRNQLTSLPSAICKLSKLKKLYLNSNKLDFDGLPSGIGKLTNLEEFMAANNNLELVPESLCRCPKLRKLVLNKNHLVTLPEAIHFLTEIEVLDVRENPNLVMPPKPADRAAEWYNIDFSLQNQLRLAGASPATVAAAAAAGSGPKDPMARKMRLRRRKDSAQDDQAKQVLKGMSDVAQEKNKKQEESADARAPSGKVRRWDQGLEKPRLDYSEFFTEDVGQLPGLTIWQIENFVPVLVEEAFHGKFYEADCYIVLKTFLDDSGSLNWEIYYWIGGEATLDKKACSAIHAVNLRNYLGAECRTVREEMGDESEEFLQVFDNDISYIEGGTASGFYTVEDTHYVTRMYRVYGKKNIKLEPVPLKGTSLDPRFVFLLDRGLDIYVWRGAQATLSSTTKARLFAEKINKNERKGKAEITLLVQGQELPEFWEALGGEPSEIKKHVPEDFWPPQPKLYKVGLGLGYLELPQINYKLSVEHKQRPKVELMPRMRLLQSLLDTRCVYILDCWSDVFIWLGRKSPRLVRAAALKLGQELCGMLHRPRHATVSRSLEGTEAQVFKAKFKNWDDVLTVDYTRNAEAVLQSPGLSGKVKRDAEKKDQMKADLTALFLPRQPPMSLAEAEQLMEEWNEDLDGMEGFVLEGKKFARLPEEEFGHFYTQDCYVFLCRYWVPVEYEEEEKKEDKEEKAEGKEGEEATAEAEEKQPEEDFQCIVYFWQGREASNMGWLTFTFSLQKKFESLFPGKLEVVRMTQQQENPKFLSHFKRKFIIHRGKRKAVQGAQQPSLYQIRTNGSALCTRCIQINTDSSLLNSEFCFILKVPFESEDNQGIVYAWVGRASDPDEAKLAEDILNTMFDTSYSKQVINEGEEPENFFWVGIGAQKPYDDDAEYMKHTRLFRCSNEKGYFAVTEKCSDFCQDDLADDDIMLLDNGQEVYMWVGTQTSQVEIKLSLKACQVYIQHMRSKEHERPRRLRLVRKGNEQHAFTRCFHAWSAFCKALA
# UniProt Q96SL8: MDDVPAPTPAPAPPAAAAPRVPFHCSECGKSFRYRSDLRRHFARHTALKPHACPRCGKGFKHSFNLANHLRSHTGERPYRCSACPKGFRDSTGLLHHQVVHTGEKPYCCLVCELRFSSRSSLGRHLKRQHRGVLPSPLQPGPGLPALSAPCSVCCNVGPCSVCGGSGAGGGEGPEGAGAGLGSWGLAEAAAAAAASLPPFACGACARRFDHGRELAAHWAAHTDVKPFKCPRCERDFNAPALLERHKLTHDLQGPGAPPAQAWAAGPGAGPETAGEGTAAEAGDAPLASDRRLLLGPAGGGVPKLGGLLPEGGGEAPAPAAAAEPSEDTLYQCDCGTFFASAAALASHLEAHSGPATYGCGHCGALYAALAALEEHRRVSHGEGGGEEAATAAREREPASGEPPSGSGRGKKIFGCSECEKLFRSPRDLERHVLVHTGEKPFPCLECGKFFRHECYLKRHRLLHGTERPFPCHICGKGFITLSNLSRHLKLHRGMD
# This is one part of the list.
# Compound: c1ccc([C@@H]2C[C@H]2NC2CCNCC2)cc1
# Assay: log2 fold change, soluble protein after heating vs DMSO (PISA); higher = thermal stabilisation; K562 cells, 10 uM, 30 min; active = over 0.2 and 3.5 SD of the protein, either way, in both replicates (recomputed)
# Outline: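 Values are thermal stability changes relative to control samples and are taken from duplicates. They are stated as log2 fold changes. Before quantification by TMTpro 16plex LC-MS/MS with equalised channel sums, K562 cells at 2×10^6 cells/mL were treated with 10 μM compound for 30 min, heated in aliquots for 3 min across 48°C-58°C, pooled, extracted in PBS with 0.5% NP-40 at 4°C, and centrifuged at 21,000xg for 90 min to give the soluble supernatant.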
row,Target,log2 fold change
1,FARP2 (UniProt O94887),inactive: 0.087
2,FERMT2 isoform 3 (UniProt Q96AC1),inactive: 0.015
3,FAM98C (UniProt Q17RN3),inactive: 0.091
4,FAM53C (UniProt Q9NYF3),inactive: 0.167
5,FBXW11 (UniProt Q9UKB1),inactive: -0.021
6,FBXO44 (UniProt Q9H4M3),inactive: -0.062
7,FBXL8 (UniProt Q96CD0),inactive: -0.028
8,FGFR1OP2 isoform 2 (UniProt Q9NVK5),inactive: 0.186
9,FMR1 (UniProt Q06787),inactive: -0.038
10,FAM219A (UniProt Q8IW50),inactive: 0.073
11,FANCL isoform 2 (UniProt Q9NW38),inactive: 0.156
12,FCHSD1 (UniProt Q86WN1),inactive: 0.222
13,FNIP1 (UniProt Q8TF40),inactive: -0.111
14,FHOD1 (UniProt Q9Y613),inactive: -0.034
15,FCHO1 (UniProt O14526),inactive: -0.065
16,FLII isoform 2 (UniProt Q13045),inactive: -0.138
17,FLCN (UniProt Q8NFG4),inactive: -0.103
18,FBRS (UniProt J3KNZ9),inactive: -0.175
19,FIZ1 (UniProt Q96SL8),inactive: 0.044

# Some of the entries so far, with tabs:
row	Target	log2 fold change
13	FNIP1 (UniProt Q8TF40)	inactive: -0.111
14	FHOD1 (UniProt Q9Y613)	inactive: -0.034
15	FCHO1 (UniProt O14526)	inactive: -0.065
16	FLII isoform 2 (UniProt Q13045)	inactive: -0.138
17	FLCN (UniProt Q8NFG4)	inactive: -0.103
